The assay deals with T1, DnaJ fused to the full-length bacteriophage λ repressor protein (pBT-dnaJ) (Streptococcus pneumoniae D39) (UniProt P95830).
T1 sequence: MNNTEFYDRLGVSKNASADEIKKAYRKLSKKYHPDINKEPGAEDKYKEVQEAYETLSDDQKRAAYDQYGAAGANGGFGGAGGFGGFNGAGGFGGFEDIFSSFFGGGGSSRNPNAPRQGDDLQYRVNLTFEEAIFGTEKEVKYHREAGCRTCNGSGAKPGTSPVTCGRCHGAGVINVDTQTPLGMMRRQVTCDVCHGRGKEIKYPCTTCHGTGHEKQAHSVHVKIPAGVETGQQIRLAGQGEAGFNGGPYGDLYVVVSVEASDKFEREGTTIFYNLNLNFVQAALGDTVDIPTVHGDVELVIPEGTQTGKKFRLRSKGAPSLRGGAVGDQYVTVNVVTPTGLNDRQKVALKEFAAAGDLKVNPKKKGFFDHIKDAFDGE
The assay can be described thus: two-hybrid; bacterial two-hybrid in E. coli XL1-Blue MRF' Kan: DnaJ on λcI (pBT), partner on the RNA polymerase α-subunit N-terminal domain (pTRG); HIS3 and aadA reporters; selective plates with 5 mM 3-AT, dual selective plates with 5 mM 3-AT and 12.5 μg/ml streptomycin, 37 °C.

Amino acid sequences for entries named in this document (tags omitted).
UniProt Q04LY0: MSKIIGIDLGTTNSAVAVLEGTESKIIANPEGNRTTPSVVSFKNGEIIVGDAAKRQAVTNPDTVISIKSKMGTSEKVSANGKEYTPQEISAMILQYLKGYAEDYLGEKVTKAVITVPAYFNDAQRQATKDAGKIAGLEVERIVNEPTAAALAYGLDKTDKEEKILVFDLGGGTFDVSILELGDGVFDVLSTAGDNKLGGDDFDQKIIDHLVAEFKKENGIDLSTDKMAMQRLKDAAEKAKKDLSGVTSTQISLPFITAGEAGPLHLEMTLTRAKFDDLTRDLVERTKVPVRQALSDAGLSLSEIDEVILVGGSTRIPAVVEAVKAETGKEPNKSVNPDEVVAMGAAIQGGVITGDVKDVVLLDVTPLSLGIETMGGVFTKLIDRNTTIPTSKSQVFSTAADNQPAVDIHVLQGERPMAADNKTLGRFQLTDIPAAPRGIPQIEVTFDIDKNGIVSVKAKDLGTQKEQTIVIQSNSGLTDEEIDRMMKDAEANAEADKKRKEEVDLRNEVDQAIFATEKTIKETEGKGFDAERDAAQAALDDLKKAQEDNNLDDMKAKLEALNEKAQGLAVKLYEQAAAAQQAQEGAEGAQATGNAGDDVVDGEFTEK

These are yes or no findings as the source states them, for the method shown. Some binding calls cover weakened binding; strength is not graded here. Tags and fused reporters may be left off the sequences shown.

As for “DnaK fused to the N-terminal domain of the α-subunit of RNA polymerase (pTRG-dnaK) (from UniProt Q04LY0 1-607)”, the binding result is reported as “binds”.

B1: SpxB fused to the N-terminal domain of the α-subunit of RNA polymerase (pTRG-spxB) (enzyme, UniProt Q54970 1-591)
chain: MTQGKITASAAMLNVLKTWGVDTIYGIPSGTLSSLMDALAEDKDIRFLQVRHEETGALAAVMQAKFGGSIGVAVGSGGPGATHLINGVYDAAMDNTPFLAILGSRPVNELNMDAFQELNQNPMYNGIAVYNKRVAYAEQLPKVIDEACRAAVSKKGPAVVEIPVNFGFQEIDENSYYGSGSYERSFIAPALNEVEIDKAVEILNNAERPVIYAGFGGVKAGEVITELSRKIKAPIITTGKNFEAFEWNYEGLTGSAYRVGWKPANEVVFEADTVLFLGSNFPFAEVYEAFKNTEKFIQVDIDPYKLGKRHALDASILGDAGQAAKAILDKVNPVESTPWWRANVKNNQNWRDYMNKLEGKTEGELQLYQVYNAINKHADQDAIYSIDVGNTTQTSTRHLHMTPKNMWRTSPLFATMGIALPGGIAAKKDNPDRQVWNIMGDGAFNMCYPDVITNVQYDLPVINLVFSNAEYGFIKNKYEDTNKHLFGVDFTNADYAKIAEAQGAVGFTVDRIEDIDAVVAEAVKLNKEGKTVVIDARITQHRPLPVEVLELDPKLHSEEAIKAFKEKYEAEELVPFRLFLEEEGLQSRAIK
In the case of B1, the binding entry is reported as “binds”.

For the origin of these results see publication PMC3824243.
